One substance from paper PMC12511632 can be followed below.

The target of this assay is T1, C-terminally FLAG-tagged G2E3 (G2/M-phase-specific E3 ubiquitin ligase) (UniProt Q7L622).
T1 sequence: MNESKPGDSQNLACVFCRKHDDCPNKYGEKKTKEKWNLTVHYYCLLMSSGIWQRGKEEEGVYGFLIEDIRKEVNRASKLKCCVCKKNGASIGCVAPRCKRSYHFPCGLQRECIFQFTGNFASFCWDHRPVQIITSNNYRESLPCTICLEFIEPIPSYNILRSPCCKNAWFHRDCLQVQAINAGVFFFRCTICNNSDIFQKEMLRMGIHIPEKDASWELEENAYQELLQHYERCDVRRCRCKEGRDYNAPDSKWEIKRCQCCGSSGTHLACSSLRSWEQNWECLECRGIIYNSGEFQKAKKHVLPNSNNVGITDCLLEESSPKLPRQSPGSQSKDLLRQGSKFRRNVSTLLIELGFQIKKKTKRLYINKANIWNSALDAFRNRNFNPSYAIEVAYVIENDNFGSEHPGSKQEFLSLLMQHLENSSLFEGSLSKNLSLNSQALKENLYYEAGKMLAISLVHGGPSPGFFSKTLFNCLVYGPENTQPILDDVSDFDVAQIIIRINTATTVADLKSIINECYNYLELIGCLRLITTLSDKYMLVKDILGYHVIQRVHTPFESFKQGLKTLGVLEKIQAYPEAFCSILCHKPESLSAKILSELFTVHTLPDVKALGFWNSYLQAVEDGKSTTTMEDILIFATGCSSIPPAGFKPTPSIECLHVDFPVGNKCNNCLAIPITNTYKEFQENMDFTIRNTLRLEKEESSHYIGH
The assay can be described thus: co-IP; HEK293TN cells (text: HEK293T) transfected with G2E3-FLAG or empty FLAG plasmid, 48 h; lysed in RIPA buffer; Pierce Co-IP kit; endogenous partners detected by immunoblot. Background: A western blot detects proteins with antibodies after separation by electrophoresis.

No constants are given. Whether binding was seen depends on the method and setting. Binding seen in cells or lysates may run through a third protein. Tags and fused reporters may be left off the sequences shown.

In the case of “ubiquitin (human (endogenous in HEK293TN))”, the binding result is “no binding”.
